Part of at least one peptide drawing is inferred or uncertain, most often the ends. Ends that are not written are not given here.
Test: Biological activity (test not specified)

With PPISIDLTFHLLRNMIEMARNENQR-NH2 [UI 4-28] the biological activity was “biologically active”.

From patent US4533654A, “Urotensin peptides” (The Salk Institute For Biological Studies, priority 1984, dated 1985)
